# Reference: paper PMC4511761
# Amino acid sequences for entries named in this document (tags omitted). A change or cut given only in a name is not applied to a line headed by its entry.
# UniProt P60122: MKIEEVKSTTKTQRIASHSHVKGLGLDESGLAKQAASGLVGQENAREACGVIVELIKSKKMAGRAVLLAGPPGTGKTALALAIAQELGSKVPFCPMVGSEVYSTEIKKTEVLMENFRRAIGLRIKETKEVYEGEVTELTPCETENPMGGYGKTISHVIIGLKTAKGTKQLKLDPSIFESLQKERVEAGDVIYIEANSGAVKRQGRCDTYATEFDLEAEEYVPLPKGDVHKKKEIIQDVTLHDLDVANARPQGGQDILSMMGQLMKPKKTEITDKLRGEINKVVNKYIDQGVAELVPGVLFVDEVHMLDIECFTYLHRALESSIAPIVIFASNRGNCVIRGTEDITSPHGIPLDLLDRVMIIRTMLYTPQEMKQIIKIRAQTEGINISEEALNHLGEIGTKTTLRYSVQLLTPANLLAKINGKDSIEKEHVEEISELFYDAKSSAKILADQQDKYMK
# UniProt Q9WTM5: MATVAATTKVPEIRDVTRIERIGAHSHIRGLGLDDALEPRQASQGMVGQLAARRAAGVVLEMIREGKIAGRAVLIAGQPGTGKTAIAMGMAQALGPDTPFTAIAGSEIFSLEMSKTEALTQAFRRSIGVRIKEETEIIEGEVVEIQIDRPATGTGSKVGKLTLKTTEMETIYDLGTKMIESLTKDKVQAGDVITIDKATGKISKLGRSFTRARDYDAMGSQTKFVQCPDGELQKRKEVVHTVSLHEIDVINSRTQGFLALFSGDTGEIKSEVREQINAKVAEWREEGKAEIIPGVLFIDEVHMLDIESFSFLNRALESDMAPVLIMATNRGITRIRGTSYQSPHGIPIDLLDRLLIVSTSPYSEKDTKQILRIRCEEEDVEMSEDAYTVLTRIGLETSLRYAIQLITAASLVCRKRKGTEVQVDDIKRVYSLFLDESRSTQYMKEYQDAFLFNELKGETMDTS
# UniProt P53350: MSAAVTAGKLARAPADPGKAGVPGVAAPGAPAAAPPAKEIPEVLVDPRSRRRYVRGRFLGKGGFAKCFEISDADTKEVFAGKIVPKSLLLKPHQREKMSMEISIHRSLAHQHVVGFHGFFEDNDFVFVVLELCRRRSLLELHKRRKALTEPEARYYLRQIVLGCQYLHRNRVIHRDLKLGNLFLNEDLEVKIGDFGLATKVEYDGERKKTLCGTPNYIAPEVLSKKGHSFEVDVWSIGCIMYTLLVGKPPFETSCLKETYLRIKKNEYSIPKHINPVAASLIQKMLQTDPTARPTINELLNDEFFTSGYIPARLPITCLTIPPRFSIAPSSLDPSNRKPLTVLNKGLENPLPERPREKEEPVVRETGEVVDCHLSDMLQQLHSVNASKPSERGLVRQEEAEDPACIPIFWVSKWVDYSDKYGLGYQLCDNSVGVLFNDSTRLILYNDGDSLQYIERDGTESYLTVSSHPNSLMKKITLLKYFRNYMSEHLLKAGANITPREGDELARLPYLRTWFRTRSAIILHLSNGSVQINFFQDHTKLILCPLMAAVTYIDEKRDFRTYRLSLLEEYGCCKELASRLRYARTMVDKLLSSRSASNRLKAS
# No constants are given. Whether binding was seen depends on the method and setting. Binding seen in cells or lysates may run through a third protein. Some entries that bind do so weakly or less than the wild type.
# What was measured:
# [1] = molecular target: GST-tagged RUVBL1 (murine) (mouse) (UniProt P60122); experiment: pull-down; GST-tagged RUVBL1 and His-tagged RUVBL2 co-expressed in E. coli and purified using GSH beads; co-purification
# [2] = molecular target: HA-tagged RUVBL1 (murine) (mouse) (UniProt P60122); experiment: co-IP; anti-HA (12CA5 hybridoma supernatant) on 1 mg extract (NP-40 buffer) of nocodazole-arrested 293T cells transfected with HA-tagged RUVBL1; blot for PLK1
# [3] = molecular target: GFP-tagged mouse RuvBL1 (GFP-mRuvBL1) (mouse) (UniProt P60122); experiment: co-IP; GFP-trap (Chromotek) on 1 mg whole cell extract of HeLa cells stably expressing the GFP-tagged protein; cells asynchronous or double-thymidine/nocodazole-synchronized; Western blot
# [4] = molecular target: GFP-tagged mouse RuvBL2 (GFP-mRuvBL2) (mouse) (UniProt Q9WTM5); experiment: as above
# [5] = molecular target: FLAG-tagged PLK1 (polo-like kinase 1) (UniProt P53350); experiment: co-IP; anti-FLAG antibody/beads on 1 mg extract (NP-40 buffer: 50 mM Tris-HCl pH 8.0, 150 mM NaCl, 1 mM EDTA, 1% NP-40) of FLAG-PLK1-transfected 293T cells, asynchronous or nocodazole-arrested; blot for RUVBL1
# [6] = molecular target: FLAG-tagged murine RuvBL1 D302N (ATPase-dead) (mouse) (UniProt P60122); experiment: co-IP; anti-FLAG immunoprecipitates from U2OS T-REx cell lines after four days of doxycycline treatment; blot for RUVBL2
# [7] = molecular target: FLAG-tagged murine RuvBL1, wild type (mouse) (UniProt P60122); experiment: as above
substance,measurement,setting,value
His-tagged RUVBL2 (murine) (from UniProt Q9WTM5 1-463),binding,[1],binds
"PLK1 (polo-like kinase 1), endogenous (from UniProt P53350 1-603) (enzyme)",binding,[2],binds
same,binding,[3],binds
"RUVBL1 (RuvB-like 1), endogenous (from UniProt Q9Y265-1 1-456)",binding,[4],binds
same,binding,[5],binds
"RUVBL2 (RuvB-like 2), endogenous (from UniProt Q9Y230-1 1-463)",binding,[6],binds
same,binding,[7],binds
same,binding,[3],binds
